Test: Solubility of rapamycin in solvents and solvent combination
Settings: IPA 15.00 wt %, PEG 400 60.00 wt %, DIA 15.00 wt %, glycerol 10.00 wt %

In the case of `CO[C@H]1C[C@@H]2CC[C@@H](C)[C@@](O)(O2)C(=O)C(=O)N2CCCC[C@H]2C(=O)O[C@H]([C@H](C)C[C@@H]2CC[C@@H](O)[C@H](OC)C2)CC(=O)[C@H](C)/C=C(\C)[C@@H](O)[C@@H](OC)C(=O)[C@H](C)C[C@H](C)/C=C/C=C/C=C/1C` [Rapamycin, rapamycin (sirolimus)], the “Rapamycin solubility in solvent system (maximum rapamycin solubility in combined solvents)” value was 4.97 wt %.
